Assay results taken from PMC12431657, “Discovery and mechanistic insights of dibenzoylmethane as a broad spectrum inhibitor of coronavirus” (PLOS Pathogens, 2025).
Where a name gives a salt, the structure may show the parent alone. Read-outs that look alike come from different tables or passages of the source. In all, about 3,300 compounds went through this assay and about 95 (3%) showed an effect of 50% or more. The list shows a part of the results.

System: HCoV-229E
Design: species or system Huh-7; HTS, protection from HCoV-229E induced cell death, luminescent cell viability (CellCounting-Lite 2.0), inhibition rate
Details: 24 h post infection, 1 h compound pre-incubation, 10 µM, inhibitor

SMILES	229E Inhibition rate	229E Inhibition rate (229E Inhibition rate, 24 h)
O=c1c(O)c(-c2ccc(O)cc2O)oc2cc(O)cc(O)c12 [Morin]	31.1%	–
OC[C@H]1O[C@@H](Oc2cc(O)cc(/C=C/c3ccc(O)cc3)c2)[C@H](O)[C@@H](O)[C@@H]1O [Polydatin]	11.9%	–
C/C=C1/CN2CCc3c([nH]c4ccccc34)[C@@H]2C[C@@H]1/C(=C/OC)C(=O)OC [Geissoschizine methyl ether]	0%	–
O=C(/C=C/c1ccccc1)OC[C@H]1O[C@@H](O[C@@H]2OC=C[C@H]3[C@H](O)[C@@H]4O[C@]4(CO)[C@@H]23)[C@H](O)[C@@H](O)[C@@H]1O [Picroside I]	8.1%	–
CC(C)CCC[C@@H](C)[C@H]1CC[C@H]2C3=CC[C@H]4C[C@@H](O)CC[C@]4(C)[C@H]3CC[C@]12C [Lathosterol]	5.7%	–
C[C@H]1O[C@@H](O[C@H]2CC[C@@]3(C)[C@@H](CC[C@]4(C)[C@@H]3C=CC3=C5CC(C)(C)CC[C@]5(CO)[C@@H](O)C[C@]34C)[C@]2(C)CO)[C@H](O)[C@@H](O[C@@H]2O[C@H](CO)[C@@H](O)[C@H](O)[C@H]2O)[C@H]1O [Saikosaponin B1]	23.1%	–
CN1CC[C@]23c4ccccc4N[C@H]1[C@]21CCN(C)[C@H]3Nc2ccccc21 [Calycanthine]	8.3%	–
CNc1ccc2oc(C[C@H]3O[C@@]4(CC[C@H]3C)O[C@H]([C@H](C)C(=O)c3ccc[nH]3)[C@H](C)C[C@H]4C)nc2c1C(=O)O [Calcimycin]	0%	–
C=C(C)[C@@H]1CC=C(CO)CC1 [(S)-(−)-Perillyl alcohol]	9.9%	–
COc1cc(-c2coc3cc(O[C@@H]4O[C@H](CO)[C@@H](O)[C@H](O)[C@H]4O)c(OC)c(O)c3c2=O)cc(O)c1OC [Iridin]	0%	–
COc1cc2c(cc1O)CC[N+](C)(C)[C@@H]2Cc1ccc(O)cc1 [Lotusine (hydroxide)]	0%	–
COc1ccc2c(c[n+](C)c3c4cc5c(cc4ccc23)OCO5)c1OC [Chelerythrine (chloride)]	3%	–
COC(=O)C1=CO[C@@H](O[C@@H]2O[C@H](CO)[C@@H](O)[C@H](O)[C@H]2O)[C@H]2[C@@H]1[C@H](O)C[C@]2(C)O [Shanzhiside methyl ester]	7%	–
O[C@@H]1[C@@H](O)[C@@H]2OC[C@@H](O2)[C@H]1O [Levoglucosan]	14.6%	–
Oc1cnc2c(O)cccc2c1 [Jineol]	16.6%	–
CC(C)=CCC[C@H](C)[C@@H]1CC[C@]2(C)C3=C(CC[C@@]12C)[C@@]1(C)CC[C@H](O)C(C)(C)[C@@H]1CC3 [Tirucallol]	0%	–
COc1cc(C(C)=O)ccc1O[C@@H]1O[C@H](CO)[C@@H](O)[C@H](O)[C@H]1O [Androsin]	11.3%	–
C=C1C(=O)O[C@@H]2CC(C)=C([C@@H](C)CCCOC(C)=O)[C@@H](O)[C@H]12 [Inulicin]	16.6%	–
C=CCc1ccc(OC)c(OC)c1 [Methyl Eugenol]	9.5%	–
CC(C)=CCC[C@@H](C)CCO [(R)-Citronellol]	19.3%	–
CC(C)(O)[C@@H](O)COc1c2ccoc2cc2oc(=O)ccc12 [(-)-Oxypeucedanin hydrate]	12.8%	–

SMILES	229E Inhibition rate	229E Inhibition rate (229E Inhibition rate, 24 h)
Oc1ccc2ccc3cccc4ccc1c2c34 [1-Hydroxypyrene]	8.1%	–
Cc1ccc(C(C)C)cc1O [Carvacrol]	23.8%	–
N[C@@H](CS(=O)(=O)O)C(=O)O [L-Cysteic acid (monohydrate)]	10.5%	–
COc1ccc(-c2oc3c(CC=C(C)C)c(O[C@@H]4O[C@H](CO)[C@@H](O)[C@H](O)[C@H]4O)cc(O)c3c(=O)c2O[C@@H]2O[C@@H](C)[C@H](O)[C@@H](O)[C@H]2O[C@@H]2OC[C@@H](O)[C@H](O)[C@H]2O)cc1 [Epimedin B]	18.4%	–
COc1c(O)c(C)cc2c1C(=O)c1c(O)cccc1C2=O [Obtusifolin]	20.3%	–
CCC(=O)c1c(O)cc(O)cc1O [Flopropione]	21.5%	–
COc1ccc(CC(=O)O)cc1OC [3,4-Dimethoxyphenylacetic acid]	13.5%	–
COc1cc(/C=C/C(=O)NCCc2ccc(O)cc2)ccc1O [N-trans-Feruloyltyramine]	25.1%	–
COc1cc(O)c2c(=O)cc(-c3ccc(O)c(O)c3)oc2c1 [Hydroxygenkwanin]	49.2%	–
O=c1cc(-c2ccc(O)cc2)oc2cccc(O)c12 [4',5-Dihydroxyflavone]	24.7%	–
CC(=O)N1C[C@H](O)C[C@H]1C(=O)O [Oxaceprol]	6.7%	–
COc1ccc2cc3[n+](cc2c1O)CCc1cc2c(cc1-3)OCO2 [Berberrubine (chloride)]	17%	–
CC[C@H](CC[C@@H](C)[C@H]1CC[C@H]2[C@@H]3CC=C4C[C@@H](O)CC[C@]4(C)[C@H]3CC[C@]12C)C(C)C [Beta-Sitosterol (purity>75%)]	–	15%
O=C(O)C1=CCCNC1 [Guvacine hydrochloride]	8.6%	–
C=C(CC[C@@H](C(=O)O)[C@H]1[C@H](O)C[C@@]2(C)C3=CC[C@H]4C(C)(C)[C@@H](O)CC[C@]4(C)C3=CC[C@]12C)C(C)C [Dehydrotumulosic acid]	8.5%	–
COC(=O)CC[C@@H](C)[C@H]1CC[C@H]2[C@@H]3[C@H](O)C[C@@H]4C[C@H](O)CC[C@]4(C)[C@H]3C[C@H](O)[C@]12C [Methyl cholate]	54.9%	–
CC(C)=CCC/C(C)=C/CC/C(C)=C/Cc1c(O)c2ccccc2oc1=O [Ferulenol]	4.4%	–
COc1cc2cc(c1Cl)N(C)C(=O)C[C@H](OC(=O)[C@H](C)N(C)C(C)=O)[C@]1(C)O[C@H]1[C@H](C)[C@@H]1C[C@@](O)(NC(=O)O1)[C@H](OC)/C=C/C=C(\C)C2 [Maytansine]	10.2%	–
CC1=C(C=O)C(C)(C)C[C@H](O[C@@H]2O[C@H](CO)[C@@H](O)[C@H](O)[C@H]2O)C1 [Picrocrocin]	12.4%	–
CC1=C[C@]23C(=O)[C@@H](C=C(CO)[C@@H](O)[C@]2(O)[C@H]1O)[C@H]1[C@@H](C[C@H]3C)C1(C)C [Ingenol]	15.6%	–
O=C1c2ccccc2C(=O)c2c(O)ccc(O)c21 [Quinizarin]	0%	–

As entered above:
O[C@@H]1[C@@H](O)[C@@H]2OC[C@@H](O2)[C@H]1O [Levoglucosan] | 229E Inhibition rate: 14.6%
COc1ccc2c(c[n+](C)c3c4cc5c(cc4ccc23)OCO5)c1OC [Chelerythrine (chloride)] | 229E Inhibition rate: 3%
CC1=C(C=O)C(C)(C)C[C@H](O[C@@H]2O[C@H](CO)[C@@H](O)[C@H](O)[C@H]2O)C1 [Picrocrocin] | 229E Inhibition rate: 12.4%

(continued)

SMILES	229E Inhibition rate	229E Inhibition rate (229E Inhibition rate, 24 h)
CC1(C)CC[C@]2(C(=O)O)CC[C@]3(C)C(=CC[C@@H]4[C@@]5(C)CC[C@H](O)[C@@](C)(CO)[C@@H]5CC[C@]43C)[C@@H]2C1 [Hederagenin]	10.9%	–
COC(=O)c1c(O)cc(O)cc1O [Methyl 2,4,6-trihydroxybenzoate]	38.1%	–
CC(C)=CCC/C(C)=C/CO [Geraniol]	16.2%	–
COC(=O)c1c[nH]c2ccccc12 [Methyl indole-3-carboxylate]	12%	–
CC(=O)c1c(O)cccc1O [2,6-Dihydroxyacetophenone]	13.6%	–
CCOC(=O)/C=C/c1ccccc1 [Ethyl cinnamate]	4%	–
COc1ccc(/C=C/C(=O)O)cc1 [(E)-3-(4-Methoxyphenyl)acrylic acid]	–	21.1%
CC1=C(CO)C(=O)O[C@@H]([C@@H](C)[C@H]2CC[C@H]3[C@@H]4C[C@H]5O[C@]56[C@@H](O)C=CC(=O)[C@]6(C)[C@H]4CC[C@]23C)C1 [Withaferin A]	1.5%	–
CC12CC3OC4O[C@H](CO)[C@@H](O)[C@H](O)[C@H]4OC34CC1C4(COC(=O)c1ccccc1)C(=O)O2 (stereo partly drawn) [Lactiflorin]	8.4%	–
COc1cc(CCC(=O)O)cc(OC)c1OC [3-(3,4,5-Trimethoxyphenyl)propanoic acid]	55.1%	–
COc1ccccc1/C=C/C=O [2-Methoxycinnamaldehyde]	10.1%	–
CCC(C(=O)O)c1ccccc1 (stereo not drawn) [2-Phenylbutanoic acid]	10.2%	–
Cn1cnc(C[C@H](N)C(=O)O)c1 [1-Methyl-L-histidine]	12.7%	–
NC(=O)/C=C\C(=O)O [(Z)-4-Amino-4-oxobut-2-enoic acid]	25.2%	–
O=C[C@H](O)[C@@H](O)[C@H](O)CO (racemic) [DL-Xylose]	–	18.5%
O=C(O)C/C=C(\CC(=O)O)C(=O)O [Triglochinic acid]	21.8%	–
OC[C@H]1O[C@@](CO)(OC[C@@]2(OC[C@@]3(OC[C@@]4(OC[C@@]5(OC[C@@]6(OC[C@@]7(OC[C@@]8(O[C@H]9O[C@H](CO)[C@@H](O)[C@H](O)[C@H]9O)O[C@H](CO)[C@@H](O)[C@@H]8O)O[C@H](CO)[C@@H](O)[C@@H]7O)O[C@H](CO)[C@@H](O)[C@@H]6O)O[C@H](CO)[C@@H](O)[C@@H]5O)O[C@H](CO)[C@@H](O)[C@@H]4O)O[C@H](CO)[C@@H](O)[C@@H]3O)O[C@H](CO)[C@@H](O)[C@@H]2O)[C@@H](O)[C@@H]1O [Fructo-oligosaccharide DP9/GF8]	41%	–
COc1cc2oc(-c3ccccc3)cc(=O)c2c(O)c1O [Negletein]	43.2%	–
COC(=O)c1ccc(O)cc1 [Methyl Paraben]	8%	–
COc1c(-c2ccc(O)c(O)c2)oc2cc(O)cc(O)c2c1=O [3-O-Methylquercetin]	37.8%	–
COC(=O)C1=CO[C@@H](O[C@@H]2O[C@H](CO)[C@@H](O)[C@H](O)[C@H]2O)[C@@H]2[C@@H](C)CC(=O)[C@]12O [Hastatoside]	0%	–
